From PubChem BioAssay AID624297 (National Center for Advancing Translational Sciences (NCATS), 2012)
The whole screen tested about 340,000 compounds, of which about 6,200 (1.8%) were called active. Inconclusive means that the source gave no clear call. Such entries were picked first, then a sample of the others. Calls come from the whole dose curve; as a rule, active = well fitted activation curve with a large enough effect; inconclusive = small, poorly fitted or top-dose-only effect; inactive = no such curve, though single readings can be large or run the other way. Where the call is inconclusive, the potency comes from a doubtful curve fit.

Experiment: A quantitative high throughput screen for small molecules that induce DNA re-replication in SW480 colon adenocarcinoma cells. For re-replication activation: % of control where 0% means no effect. Note: nearly all actives have a fitted effect of over 55% in size.
Settings: Hoechst DNA content imaging, 48 h; re-replication activation: at 46.1 µM (top of the series) unless noted
Outline: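 Cells (250 per well) received 23 nL compound or DMSO by pin tool and were kept 48 hr at 37 C, 5% CO2. Nuclei were then stained with Hoechst for 40 min and scanned for DNA content.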
Potency is the fitted concentration of half-maximal effect.

SMILES	Potency	re-replication activation
COc1ccc(Cl)cc1NC(=O)CN(C)C(=O)c1ccc(N2CCCCCC2)c([N+](=O)[O-])c1	inconclusive: 20.6 µM [activator, partial curve, poor fit]	–
CN(C)c1ccc(/C=C/C(=O)c2ccc(C(C)(C)C)cc2)cc1[N+](=O)[O-]	inconclusive: 20.6 µM [activator, partial curve, poor fit]	–
COc1ccc(/C=C/c2cc(O)cc(OC3OC(CO)C(O)C(O)C3O)c2)cc1 (centres undefined)	active: 0.184 µM	–
FC(F)(F)c1nc(SCc2ccccc2)n[nH]1	inconclusive: 23.1 µM [activator, partial curve, poor fit]	–
O=C(CSc1ccc(-c2ccccn2)nn1)c1ccc([N+](=O)[O-])cc1	inconclusive: 16.4 µM [activator, single point]	–
CC(=O)Nc1ccc(S(=O)(=O)Oc2ccc(C(=S)N3CCCCC3)cc2)cc1	inactive	–
Cc1c(O)ccc(/C=N/Nc2ncccc2[N+](=O)[O-])c1O	inactive	–
Cc1cc(C)cc(NC(=O)N2CCN(S(C)(=O)=O)CC2)c1	inactive	–
CNC(=O)c1ccsc1NC(=O)CS(=O)(=O)c1ccc(Cl)cc1	inconclusive: 29.1 µM [activator, partial curve, poor fit]	–
Cc1noc(C)c1COc1cccc(C(=O)NCCc2c[nH]c3ccccc23)c1	inconclusive: 18.4 µM [activator, single point]	–
Cc1cccc(OCc2nnc(SCC(=O)c3cccs3)n2C)c1C	inactive	–
CCOc1ccc(/C(CC)=N/NC(=O)C2(C)CC2(Br)Br)cc1 (centres undefined)	inconclusive: 0.184 µM [activator, full curve, poor fit]	–
CCCOC(=O)C(=O)NNc1ccccc1	inactive	–
Cc1noc(C)c1NC(=O)N(C)C[C@H]1Oc2ccc(NC(=O)Nc3ccc4c(c3)OCO4)cc2C(=O)N([C@H](C)CO)C[C@@H]1C	inconclusive: 1.3 µM [activator, partial curve, poor fit]	–
CCN(c1ccccc1)S(=O)(=O)c1ccc(OC)c(NC(=O)c2ccc(=O)[nH]c2)c1	inconclusive: 10.3 µM [activator, partial curve, poor fit]	–
COc1ccc(NC(=S)NCc2cccs2)cc1	–	inconclusive: 45.5% [activator]
Cc1cccc(NC(=O)c2ccc([N+](=O)[O-])o2)c1C	active: 7.31 µM	–
COc1ccc(CNc2ccc3c(c2)nc(C)n3C)cc1OC	inconclusive: 0.731 µM [activator, full curve, poor fit]	–
O=C(O)c1ccc2c(c1)C(=O)N(C(Cc1ccc(O)cc1)C(=O)O)C2=O (centres undefined)	inactive	–
CCOC(=O)N1CC=C2C(C#N)=C(N)C(C#N)(C#N)[C@H](c3ccccc3OCC)[C@H]2C1	inconclusive: 29.1 µM [activator, single point]	–
CC1(c2ccccc2)NC(=O)N(CC(=O)Nc2ccccc2C(=O)NC2CC2)C1=O (centres undefined)	inconclusive: 29.1 µM [activator, single point]	–
O=C(/C(=C/O)N=Nc1ccccc1)c1ccco1	inconclusive: 29.1 µM [activator, single point]	–
Cc1ccccc1C(=O)Nc1ccc(C(=O)N/N=C/c2ccccn2)cc1	inactive	–

Looked up above.
Potency, `CN(C)c1ccc(/C=C/C(=O)c2ccc(C(C)(C)C)cc2)cc1[N+](=O)[O-]` is entered as inconclusive: 20.6 µM [activator, partial curve, poor fit]
re-replication activation, `COc1ccc(NC(=S)NCc2cccs2)cc1` is entered as inconclusive: 45.5% [activator]
Potency, `CCOc1ccc(/C(CC)=N/NC(=O)C2(C)CC2(Br)Br)cc1` (centres undefined) is entered as inconclusive: 0.184 µM [activator, full curve, poor fit]

Further compounds:

SMILES	Potency	re-replication activation
CC(C)c1cc(C(=O)NNC(=S)NCc2ccco2)c(O)c(C(C)C)c1	inactive	–
CC(NNC(=S)N1CCN(c2ccccn2)CC1)c1nccc2ccccc12 (centres undefined)	inconclusive: 0.082 µM [activator, full curve, poor fit]	–
Cc1c(C(=O)OCC(=O)NCCN2C(=O)CSC2=O)oc2c1ccc1ccccc12	inconclusive: 0.651 µM [activator, partial curve, poor fit]	–
CN(c1ccccc1)S(=O)(=O)c1cc(C(=O)Nc2ccccc2N2CCOCC2)ccc1Cl	inactive	–
COc1cc(NC(=O)c2ccccc2[N+](=O)[O-])c(C(=O)O)cc1OC	inactive	–
COc1ccc(C(=O)NCCS(=O)(=O)NCc2ccc(F)cc2)cc1	active: 3.66 µM	–
N#C/C(=C/c1ccc(-c2cc([N+](=O)[O-])ccc2Cl)o1)C(N)=O	inconclusive: 32.6 µM [activator, single point]	–
CCOC(=O)N1CCN(Cc2nc3cc(NC(=O)CC)ccc3n2CC)CC1	inconclusive: 18.4 µM [activator, single point]	–
O=C(Nc1ccc(N2CCN(C(=O)c3ccco3)CC2)cc1)c1cc(Br)ccc1Cl	inconclusive: 20.6 µM [activator, single point]	–
COC(=O)C1=CN(c2cc(C)cc(C)c2)C=C(C(=O)OC)C1c1ccc(OC)c(O)c1	inconclusive: 29.1 µM [activator, single point]	–
O=C(CN1CCN(S(=O)(=O)c2ccc(F)cc2)CC1)Nc1ccc2c(c1)OCCO2	inactive	–
CC(C)Oc1ccccc1/C=N/NC(=O)c1ccc(F)cc1	inactive	–
COc1ccccc1NC(=O)CCC(=O)Nc1nnc(C2CCCCC2)s1	inconclusive: 4.61 µM [activator, single point]	–
O=Cc1c(Cl)nc2ccccn2c1=O	inconclusive: 20.6 µM [activator, single point]	–
O=C(c1ccc(CS(=O)c2cccc(Cl)c2)o1)N1CCCCCC1 (centres undefined)	inactive	–
CC(C)=CC(=O)OCc1csc(CC(=O)Nc2ccccc2C)n1	inactive	–
O=C(NCCO)c1ccc(CSc2nc3ccccc3[nH]2)cc1	inactive	–
Cc1cccc(CCN(C(=O)c2snc(C(N)=O)c2N)C(C(=O)NCC2CCCO2)c2ccc(F)cc2)c1 (centres undefined)	inconclusive: 23.1 µM [activator, single point]	–
CCC(=O)Nc1nnc(/C=C/c2ccc(OC)cc2)s1	inconclusive: 8.2 µM [activator, partial curve, poor fit]	–
O=C(c1ccco1)N1CCN(S(=O)(=O)c2c(Cl)cccc2Cl)CC1	inconclusive: 20.6 µM [activator, single point]	–
CC1(C)CC(=O)C(C(O)c2ccccc2)C(C)(C)N1 (centres undefined)	inconclusive: 0.116 µM [activator, full curve, poor fit]	–
COc1cc(C)c(Cl)c(C)c1S(=O)(=O)NC1CC(C)(C)NC(C)(C)C1	inconclusive: 13 µM [activator, single point]	–
COCCn1c(C)cc(C2=NNC(=Nc3ccc(OC)cc3)SC2)c1C	inactive	–

SMILES	Potency	re-replication activation
O=C(Cc1c[nH]c2ccccc12)Nc1nc2ccccc2[nH]1	inactive	–
CN1/C(=C\C(=O)C[n+]2ccc3ccccc3c2)C(C)(C)c2ccccc21	inconclusive: 6.51 µM [activator, partial curve, poor fit]	–
Cc1nnc(SCC(=O)NC2CCS(=O)(=O)C2)n1Cc1ccccc1 (centres undefined)	inactive	–
Cc1cc(C)c2nc(N3CCC(C(=O)N4CCN(c5ncccn5)CC4)CC3)sc2c1	inconclusive: 0.103 µM [activator, full curve, poor fit]	–
C=CC(=O)Nc1ccc(Nc2ccnc(Nc3ccc(N4CCN(C)CC4)cc3)n2)cc1	inactive	–
CCCCN(CC)Cc1ccc(CNC(=S)Nc2ccc(C)cc2Cl)o1	inconclusive: 5.8 µM [activator, full curve]	–
COc1ccc(C)c(NC(=O)C2CC(=O)NC3=C2C(=O)CCC3)c1 (centres undefined)	inactive	–
CC(=O)c1ccc(NC(=O)C2CC(=O)Nc3nc4ccccc4n32)cc1 (centres undefined)	inconclusive: 16.4 µM [activator, single point]	–
COc1cc([C@H]2Oc3cc([C@H]4Oc5cc(O)cc(O)c5C(=O)[C@@H]4O)ccc3O[C@@H]2CO)ccc1O	inconclusive: 0.206 µM [activator, single point]	–
Cc1ccccc1N(CC(=O)N/N=C/c1ccc(Cl)cc1)C(=O)c1ccccc1	inconclusive: 29.1 µM [activator, single point]	–
CCCCCCNC(=O)c1cc(S(=O)(=O)N2CCc3ccccc32)ccc1F	inactive	–
O=Cc1ccc(OCC(=O)Nc2ccccc2C(F)(F)F)cc1	inactive	–
O=C1C2C3CCC(CC3)C2C(=O)N1c1ccccc1 (centres undefined)	inactive	–
C[C@]12c3[nH]c4cc(-c5ccco5)ccc4c3CCN1C(=O)[C@@H](CC(=O)NCc1ccco1)C[C@@H]2C(=O)N1CCCCC1	inconclusive: 25.9 µM [activator, single point]	–
COC(=O)c1c(NC(=O)COc2ccc(Cl)cc2Cl)sc2c1CC(C)(C)NC2(C)C	inconclusive: 29.1 µM [activator, single point]	–
Clc1ccc(Cl)c(OCCCCN2CCCCC2)c1	inconclusive: 29.1 µM [activator, single point]	–
CC(C)CC1NC(=O)N(CC(=O)Nc2ccc(-c3ccccc3)cc2)C1=O (centres undefined)	inconclusive: 0.651 µM [activator, full curve]	–
Cc1cc2cc3c(C)cc(=O)oc3c(C)c2o1	inactive	–
CN(c1ccccc1)S(=O)(=O)c1ccc(C(=O)Nc2nnc(-c3ccco3)o2)cc1	active: 20.6 µM	–
O=C(CCc1ccc(O)c(O)c1)N/N=C/c1cc2c(cc1[N+](=O)[O-])OCO2	inconclusive: 29.1 µM [activator, single point]	–
COc1cc(/C=N/NC(=O)c2cccc([N+](=O)[O-])c2)cc(OC)c1O	inactive	–
Cc1c(NC(=O)C(C)OC(=O)c2cc3c4ccccc4n(C)c3s2)c(=O)n(-c2ccccc2)n1C (centres undefined)	inconclusive: 0.82 µM [activator, full curve, poor fit]	–
COc1ccc(-c2nn(-c3ccccc3)cc2/C=C/C(=O)NCCCn2ccnc2)cc1OC	inconclusive: 29.1 µM [activator, partial curve, poor fit]	–
